Results reported in PubChem BioAssay AID662 (National Center for Advancing Translational Sciences (NCATS), 2007).
The other results are listed elsewhere or left out. These are further read-outs of the screen, such as a control signal, another cell line or another target. No call is given for them. The list favours compounds with an active or inconclusive main result. The note in brackets gives the kind of curve behind each potency; many fits are weak.

Assay: Cell signaling CRE-BLA (Fsk stim)
Settings: CHO CRE-bla reporter (cAMP response element driving beta-lactamase), forskolin EC10, beta-lactamase ratio; measured here: 460 nm blue channel
Method in brief: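 CRE-bla CHO reporter cells treated with compound titration plus EC10 NKH 477 (water-soluble forskolin), incubated 3 h at 37 °C; CCF4 loading 2 h at room temperature, 460/530 nm emission ratio read, AC50 values derived for positive or negative modulators.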

Structure (SMILES)	AC50
CC(C)CCn1c(SCCc2ccccc2)nc2c1c(=O)[nH]c(=O)n2C	5.01 µM [rising, partial curve]
Cc1nc2ccccc2c2nc3ccccc3n12	5.01 µM [rising, partial curve]
Cc1cccc(CNc2ncncc2-c2ccccc2Cl)c1	15.8 µM [rising, single point]
Cc1noc(C)c1-c1nc(NCc2cccnc2)c2ccccc2n1	12.6 µM [rising, partial curve]
CCNc1ccc2c(Cl)cc(=O)oc2c1	10 µM [rising, partial curve]
CC(C(=O)Oc1ccc2c(c1)OCO2)N1C(=O)c2ccccc2C1=O (centres undefined)	0.0251 µM [falling, full curve, poor fit]
COc1cc2oc(=O)c(Br)c(C)c2c(OC)c1OC	10 µM [rising, partial curve]
Oc1c(C(c2ccccc2)N2CCCCC2)sc2ncnn12 (centres undefined)	7.94 µM [falling, partial curve]
COC(=O)c1ccccc1NC(=O)CC#N	0.158 µM [falling, partial curve]
CCCCn1c(=O)c2ccccc2c2ccccc2c1=O	12.6 µM [rising, single point]
Cn1c(=O)c2c(SCC(=O)c3ccccc3)nc(C3CC3)nc2n(C)c1=O	2.51 µM [rising, full curve, poor fit]
COc1ccc(Cn2c(=O)n(Cc3ccco3)c(=N)c3c4c(sc32)COC(C)(C)C4)cc1	12.6 µM [rising, partial curve]
CC(=O)Oc1cc2oc(=O)cc(C)c2cc1OC(C)=O	12.6 µM [rising, partial curve]
O=C(NCCC1=CCCCC1)c1ccc2c(=O)n3c(nc2c1)CCCCC3	10 µM [rising, partial curve]
CCCCCSc1nnc(-c2cc(Br)ccc2N)c(=O)[nH]1	1 µM [falling, full curve]
CC(C)OC(=O)CN1C(=O)C(C)(C)Oc2ccc(C(=O)NC(C)(C)C)cc21	25.1 µM [falling, single point]
COC(=O)[C@@]1(Cc2ccc(OC)cc2)[C@H]2c3cc(C(=O)N(C)C)n(Cc4ccc(Cl)c(C(F)(F)F)c4)c3C[C@H]2CN1C(=O)c1ccccc1	0.631 µM [rising, full curve, poor fit]
COc1cccc(-c2nc(CS(=O)(=O)CC(=O)Nc3cccc(C)c3C)c(C)o2)c1	10 µM [rising, single point]
COc1ccc(CN(CCN2CCOCC2)C(=O)c2c(F)cccc2F)cc1OC	3.16 µM [falling, single point]

Laid out differently: entries from further up.
Structure (SMILES),AC50
Cc1nc2ccccc2c2nc3ccccc3n12,"5.01 µM [rising, partial curve]"
Cc1cccc(CNc2ncncc2-c2ccccc2Cl)c1,"15.8 µM [rising, single point]"
Cc1noc(C)c1-c1nc(NCc2cccnc2)c2ccccc2n1,"12.6 µM [rising, partial curve]"
CCNc1ccc2c(Cl)cc(=O)oc2c1,"10 µM [rising, partial curve]"
